Data reported in paper PMC9512926.
These are yes or no findings as the source states them, for the method shown. Binding seen in cells or lysates may run through a third protein.

Experiments:
Experiment in all cases: co-IP; FLAG-IP (anti-FLAG M2 affinity gel, 3 h, 4 °C) of lysates of transfected HEK293A cells; lysis buffer 50 mM Tris-HCl pH 7.4, 150 mM NaCl, 0.5% TritonX-100, 10% glycerol; Western blotting for DHX30; in one panel 10 μg/ml RNase A was added to the cleared lysates (interaction decreased)
[1] = target: TDP-43-FLAG WT (TAR DNA-binding protein 43)
TDP-43-FLAG Q331K = target: TDP-43-FLAG Q331K
[2] = target: TDP-43-FLAG mNLS (R82L/K83Q)
[3] = target: TDP-43-FLAG mNLS/mRRM (C173S/C175S)

Measured: binding

B1: DHX30, ATP-dependent RNA helicase (endogenous, HEK293A) (protein, UniProt Q7L2E3 1-1194)
chain: MFSLDSFRKDRAQHRQRQCKLPPPRLPPMCVNPTPGGTISRASRDLLKEFPQPKNLLNSVIGRALGISHAKDKLVYVHTNGPKKKKVTLHIKWPKSVEVEGYGSKKIDAERQAAAAACQLFKGWGLLGPRNELFDAAKYRVLADRFGSPADSWWRPEPTMPPTSWRQLNPESIRPGGPGGLSRSLGREEEEDEEEELEEGTIDVTDFLSMTQQDSHAPLRDSRGSSFEMTDDDSAIRALTQFPLPKNLLAKVIQIATSSSTAKNLMQFHTVGTKTKLSTLTLLWPCPMTFVAKGRRKAEAENKAAALACKKLKSLGLVDRNNEPLTHAMYNLASLRELGETQRRPCTIQVPEPILRKIETFLNHYPVESSWIAPELRLQSDDILPLGKDSGPLSDPITGKPYVPLLEAEEVRLSQSLLELWRRRGPVWQEAPQLPVDPHRDTILNAIEQHPVVVISGDTGCGKTTRIPQLLLERYVTEGRGARCNVIITQPRRISAVSVAQRVSHELGPSLRRNVGFQVRLESKPPSRGGALLFCTVGILLRKLQSNPSLEGVSHVIVDEVHERDVNTDFLLILLKGLQRLNPALRLVLMSATGDNERFSRYFGGCPVIKVPGFMYPVKEHYLEDILAKLGKHQYLHRHRHHESEDECALDLDLVTDLVLHIDARGEPGGILCFLPGWQEIKGVQQRLQEALGMHESKYLILPVHSNIPMMDQKAIFQQPPVGVRKIVLATNIAETSITINDIVHVVDSGLHKEERYDLKTKVSCLETVWVSRANVIQRRGRAGRCQSGFAYHLFPRSRLEKMVPFQVPEILRTPLENLVLQAKIHMPEKTAVEFLSKAVDSPNIKAVDEAVILLQEIGVLDQREYLTTLGQRLAHISTDPRLAKAIVLAAIFRCLHPLLVVVSCLTRDPFSSSLQNRAEVDKVKALLSHDSGSDHLAFVRAVAGWEEVLRWQDRSSRENYLEENLLYAPSLRFIHGLIKQFSENIYEAFLVGKPSDCTLASAQCNEYSEEEELVKGVLMAGLYPNLIQVRQGKVTRQGKFKPNSVTYRTKSGNILLHKSTINREATRLRSRWLTYFMAVKSNGSVFVRDSSQVHPLAVLLLTDGDVHIRDDGRRATISLSDSDLLRLEGDSRTVRLLKELRRALGRMVERSLRSELAALPPSVQEEHGQLLALLAELLRGPCGSFDVRKTADD
no binding: all assays above
